{"source": "PubChem BioAssay AID1224830, NIAID | 2016", "screen": "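Regulators of TLR4 signalling towards TNF-alpha in macrophage-like cells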 (primary screen)", "system": "human THP-1 monocytic leukaemia cells, TNF dual-luciferase reporter clone, PMA-differentiated to macrophage-like cells", "reagent": "siRNA pool against human genes, 50 nM", "duration": "LPS for 4 h, given about 3 days after siRNA transfection", "treatment": "bacterial LPS (TLR4 ligand), 10 ng/ml", "read-out": "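Ratio of firefly to renilla light, scaled to the plate median and expressed as a robust z-score per replicate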", "direction": "TNF reporter robust z-score: higher = stronger TNF reporter response to LPS", "rule for the call": "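Each well counts as active if its z-score is over 2.8 or under -1.5; controls are left without a call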", "note": "Here is one part, drawn at random, of about 18,000 deposited reagents. About 2,900 of all reagents (16%) count as active. 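Calls are made per well; low scores hint the gene aids the LPS response, high scores that it dampens it.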 Unmarked entries are inactive. Repeated entries: four replicate wells of each siRNA pool."}
{"Gene":"TMEM260 (GeneID 54916)","TNF reporter robust z-score":1.81}
{"Gene":"TMEM260 (GeneID 54916)","TNF reporter robust z-score":"3.12 (active)"}
{"Gene":"TMEM260 (GeneID 54916)","TNF reporter robust z-score":0.07}
{"Gene":"TMEM260 (GeneID 54916)","TNF reporter robust z-score":-0.36}
{"Gene":"PCDHA11 (GeneID 56138)","TNF reporter robust z-score":-1.27}
{"Gene":"PCDHA11 (GeneID 56138)","TNF reporter robust z-score":-0.96}
{"Gene":"PCDHA11 (GeneID 56138)","TNF reporter robust z-score":-0.16}
{"Gene":"XIRP1 (GeneID 165904)","TNF reporter robust z-score":-0.22}
{"Gene":"XIRP1 (GeneID 165904)","TNF reporter robust z-score":0.23}
{"Gene":"XIRP1 (GeneID 165904)","TNF reporter robust z-score":0.04}
{"Gene":"XIRP1 (GeneID 165904)","TNF reporter robust z-score":0.09}
{"Gene":"NLRX1 (GeneID 79671)","TNF reporter robust z-score":-0.77}
{"Gene":"NLRX1 (GeneID 79671)","TNF reporter robust z-score":-0.53}
{"Gene":"NLRX1 (GeneID 79671)","TNF reporter robust z-score":-0.78}
{"Gene":"NLRX1 (GeneID 79671)","TNF reporter robust z-score":-1.48}
{"Gene":"LRP10 (GeneID 26020)","TNF reporter robust z-score":-0.56}
{"Gene":"LRP10 (GeneID 26020)","TNF reporter robust z-score":-0.52}
{"Gene":"LRP10 (GeneID 26020)","TNF reporter robust z-score":-1.29}
{"Gene":"LRP10 (GeneID 26020)","TNF reporter robust z-score":-0.94}
{"Gene":"PACS1 (GeneID 55690)","TNF reporter robust z-score":-0.17}
{"Gene":"PACS1 (GeneID 55690)","TNF reporter robust z-score":-0.13}
{"Gene":"PACS1 (GeneID 55690)","TNF reporter robust z-score":-0.18}
{"Gene":"PACS1 (GeneID 55690)","TNF reporter robust z-score":-0.33}

Records listed so far whose target name starts with N or n (4):
{"Gene":"NLRX1 (GeneID 79671)","TNF reporter robust z-score":-0.77}
{"Gene":"NLRX1 (GeneID 79671)","TNF reporter robust z-score":-0.53}
{"Gene":"NLRX1 (GeneID 79671)","TNF reporter robust z-score":-0.78}
{"Gene":"NLRX1 (GeneID 79671)","TNF reporter robust z-score":-1.48}

More reagents follow:
{"Gene":"DNAJC25 (GeneID 548645)","TNF reporter robust z-score":-0.95}
{"Gene":"DNAJC25 (GeneID 548645)","TNF reporter robust z-score":-1.2}
{"Gene":"DNAJC25 (GeneID 548645)","TNF reporter robust z-score":-1.24}
{"Gene":"DNAJC25 (GeneID 548645)","TNF reporter robust z-score":-0.99}
{"Gene":"ANKRD45 (GeneID 339416)","TNF reporter robust z-score":0.7}
{"Gene":"ANKRD45 (GeneID 339416)","TNF reporter robust z-score":-0.84}
{"Gene":"ANKRD45 (GeneID 339416)","TNF reporter robust z-score":-1.14}
{"Gene":"ANKRD45 (GeneID 339416)","TNF reporter robust z-score":-0.81}
{"Gene":"GRM1 (GeneID 2911)","TNF reporter robust z-score":-0.43}
{"Gene":"GRM1 (GeneID 2911)","TNF reporter robust z-score":0.28}
{"Gene":"GRM1 (GeneID 2911)","TNF reporter robust z-score":-0.63}
{"Gene":"GRM1 (GeneID 2911)","TNF reporter robust z-score":-0.49}
{"Gene":"TRIM74 (GeneID 378108)","TNF reporter robust z-score":1.1}
{"Gene":"TRIM74 (GeneID 378108)","TNF reporter robust z-score":0.48}
{"Gene":"TRIM74 (GeneID 378108)","TNF reporter robust z-score":1.57}
{"Gene":"TRIM74 (GeneID 378108)","TNF reporter robust z-score":-0.76}
{"Gene":"CKB (GeneID 1152)","TNF reporter robust z-score":-0.75}
{"Gene":"CKB (GeneID 1152)","TNF reporter robust z-score":0.08}
{"Gene":"CKB (GeneID 1152)","TNF reporter robust z-score":-1.2}
{"Gene":"CKB (GeneID 1152)","TNF reporter robust z-score":-0.43}
{"Gene":"LINC02914 (GeneID 283598)","TNF reporter robust z-score":"-1.6 (active)"}
{"Gene":"LINC02914 (GeneID 283598)","TNF reporter robust z-score":-1.44}
{"Gene":"LINC02914 (GeneID 283598)","TNF reporter robust z-score":"-1.55 (active)"}
{"Gene":"LINC02914 (GeneID 283598)","TNF reporter robust z-score":"-1.94 (active)"}
